The text below walks through data of the supplement of paper PMC6411743.

By UniProt entry, the sequences of proteins in these tests, tags left out. Where a name states a change or a piece, a line headed by the entry shows the natural chain unless it says otherwise.
UniProt Q1KMD3: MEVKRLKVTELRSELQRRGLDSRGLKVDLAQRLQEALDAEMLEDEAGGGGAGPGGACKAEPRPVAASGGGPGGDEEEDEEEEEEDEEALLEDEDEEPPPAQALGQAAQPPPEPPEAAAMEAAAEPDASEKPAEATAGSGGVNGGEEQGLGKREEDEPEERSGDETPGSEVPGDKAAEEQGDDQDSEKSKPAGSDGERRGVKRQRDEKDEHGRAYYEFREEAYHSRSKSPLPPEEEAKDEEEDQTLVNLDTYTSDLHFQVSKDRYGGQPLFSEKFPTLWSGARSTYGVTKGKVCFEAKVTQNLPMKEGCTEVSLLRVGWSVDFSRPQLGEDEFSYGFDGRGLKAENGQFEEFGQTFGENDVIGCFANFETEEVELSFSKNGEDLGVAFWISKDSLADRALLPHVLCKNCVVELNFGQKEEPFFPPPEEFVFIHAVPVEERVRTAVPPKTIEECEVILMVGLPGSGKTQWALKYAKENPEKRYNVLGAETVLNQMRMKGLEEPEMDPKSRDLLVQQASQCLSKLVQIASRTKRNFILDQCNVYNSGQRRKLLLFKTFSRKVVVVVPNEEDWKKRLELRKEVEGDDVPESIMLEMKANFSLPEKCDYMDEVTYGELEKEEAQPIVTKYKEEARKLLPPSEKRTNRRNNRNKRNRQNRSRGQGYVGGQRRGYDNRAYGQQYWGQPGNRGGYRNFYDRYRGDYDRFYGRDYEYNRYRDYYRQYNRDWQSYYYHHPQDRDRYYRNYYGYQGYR
UniProt Q15067: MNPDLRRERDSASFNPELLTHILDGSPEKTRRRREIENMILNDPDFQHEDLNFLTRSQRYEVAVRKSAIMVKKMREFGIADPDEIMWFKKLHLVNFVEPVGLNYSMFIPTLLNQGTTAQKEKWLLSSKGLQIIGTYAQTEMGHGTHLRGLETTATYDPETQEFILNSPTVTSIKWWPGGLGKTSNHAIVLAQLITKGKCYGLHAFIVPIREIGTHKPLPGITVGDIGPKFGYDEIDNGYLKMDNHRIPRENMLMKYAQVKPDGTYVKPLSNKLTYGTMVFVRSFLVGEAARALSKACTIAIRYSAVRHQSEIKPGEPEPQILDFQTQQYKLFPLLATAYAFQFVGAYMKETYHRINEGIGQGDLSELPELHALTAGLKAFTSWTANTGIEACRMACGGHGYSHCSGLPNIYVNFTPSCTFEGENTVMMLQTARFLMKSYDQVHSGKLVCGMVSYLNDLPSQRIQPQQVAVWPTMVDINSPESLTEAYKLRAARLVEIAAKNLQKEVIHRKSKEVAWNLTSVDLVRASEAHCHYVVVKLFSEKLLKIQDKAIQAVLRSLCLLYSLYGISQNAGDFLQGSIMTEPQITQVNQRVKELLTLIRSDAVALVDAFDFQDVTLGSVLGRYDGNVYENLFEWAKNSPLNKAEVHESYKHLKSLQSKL
UniProt Q16531, whole entry: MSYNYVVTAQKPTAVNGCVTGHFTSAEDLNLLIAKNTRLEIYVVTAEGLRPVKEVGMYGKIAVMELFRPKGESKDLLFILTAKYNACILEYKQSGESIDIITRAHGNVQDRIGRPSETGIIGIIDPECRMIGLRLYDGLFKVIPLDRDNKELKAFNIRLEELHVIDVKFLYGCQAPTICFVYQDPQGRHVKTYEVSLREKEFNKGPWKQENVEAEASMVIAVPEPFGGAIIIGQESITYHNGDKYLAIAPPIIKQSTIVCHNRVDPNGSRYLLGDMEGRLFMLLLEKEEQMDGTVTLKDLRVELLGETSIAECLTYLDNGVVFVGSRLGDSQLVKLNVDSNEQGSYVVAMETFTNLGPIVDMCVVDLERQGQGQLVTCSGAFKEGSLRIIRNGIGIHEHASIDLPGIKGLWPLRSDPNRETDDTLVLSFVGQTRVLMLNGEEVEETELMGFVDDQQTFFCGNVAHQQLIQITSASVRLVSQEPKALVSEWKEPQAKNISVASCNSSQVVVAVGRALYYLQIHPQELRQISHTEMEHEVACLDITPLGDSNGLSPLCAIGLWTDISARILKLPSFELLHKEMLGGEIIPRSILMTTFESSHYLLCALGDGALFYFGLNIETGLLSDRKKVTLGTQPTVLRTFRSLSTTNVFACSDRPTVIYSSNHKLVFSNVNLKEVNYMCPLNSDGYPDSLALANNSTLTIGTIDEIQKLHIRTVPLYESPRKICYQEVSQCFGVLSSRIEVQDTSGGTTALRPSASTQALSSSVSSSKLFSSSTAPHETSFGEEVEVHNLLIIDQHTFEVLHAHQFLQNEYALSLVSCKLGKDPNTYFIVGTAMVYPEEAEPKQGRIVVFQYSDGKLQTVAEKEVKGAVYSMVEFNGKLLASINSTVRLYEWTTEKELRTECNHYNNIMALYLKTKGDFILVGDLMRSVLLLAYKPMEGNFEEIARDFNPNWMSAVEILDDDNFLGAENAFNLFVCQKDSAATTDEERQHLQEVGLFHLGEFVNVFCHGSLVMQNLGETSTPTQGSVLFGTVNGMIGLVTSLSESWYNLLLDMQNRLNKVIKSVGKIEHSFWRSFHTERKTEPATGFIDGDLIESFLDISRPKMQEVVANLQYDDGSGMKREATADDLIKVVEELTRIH
UniProt Q4VC31: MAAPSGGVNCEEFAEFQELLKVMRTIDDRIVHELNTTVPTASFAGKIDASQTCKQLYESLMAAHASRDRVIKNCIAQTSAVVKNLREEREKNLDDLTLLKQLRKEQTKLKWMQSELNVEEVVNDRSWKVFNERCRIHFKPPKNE
UniProt Q15814: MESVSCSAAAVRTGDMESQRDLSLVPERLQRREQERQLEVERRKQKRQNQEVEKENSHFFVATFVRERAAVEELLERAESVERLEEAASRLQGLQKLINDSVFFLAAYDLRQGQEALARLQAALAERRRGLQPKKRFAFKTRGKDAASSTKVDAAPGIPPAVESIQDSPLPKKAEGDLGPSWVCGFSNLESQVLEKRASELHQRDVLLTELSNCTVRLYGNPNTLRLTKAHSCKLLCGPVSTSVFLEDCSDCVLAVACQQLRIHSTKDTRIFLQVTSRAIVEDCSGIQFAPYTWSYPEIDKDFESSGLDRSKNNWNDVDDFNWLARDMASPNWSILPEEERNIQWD
UniProt Q56NI9: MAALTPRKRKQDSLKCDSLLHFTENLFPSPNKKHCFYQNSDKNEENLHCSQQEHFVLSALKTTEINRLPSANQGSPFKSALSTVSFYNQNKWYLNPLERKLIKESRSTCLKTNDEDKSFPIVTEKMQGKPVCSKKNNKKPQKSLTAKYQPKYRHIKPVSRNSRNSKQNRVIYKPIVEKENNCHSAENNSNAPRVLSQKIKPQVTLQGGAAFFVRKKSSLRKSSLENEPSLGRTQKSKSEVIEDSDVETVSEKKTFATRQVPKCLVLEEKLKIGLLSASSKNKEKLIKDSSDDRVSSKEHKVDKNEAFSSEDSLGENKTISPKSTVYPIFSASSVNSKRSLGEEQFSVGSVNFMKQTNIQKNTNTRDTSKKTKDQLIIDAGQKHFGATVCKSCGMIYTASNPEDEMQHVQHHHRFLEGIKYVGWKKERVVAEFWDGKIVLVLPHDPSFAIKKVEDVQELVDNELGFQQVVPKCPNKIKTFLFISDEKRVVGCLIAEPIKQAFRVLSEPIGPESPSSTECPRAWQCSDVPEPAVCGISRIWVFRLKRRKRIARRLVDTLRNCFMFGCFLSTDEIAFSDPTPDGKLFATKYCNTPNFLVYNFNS
UniProt Q14814: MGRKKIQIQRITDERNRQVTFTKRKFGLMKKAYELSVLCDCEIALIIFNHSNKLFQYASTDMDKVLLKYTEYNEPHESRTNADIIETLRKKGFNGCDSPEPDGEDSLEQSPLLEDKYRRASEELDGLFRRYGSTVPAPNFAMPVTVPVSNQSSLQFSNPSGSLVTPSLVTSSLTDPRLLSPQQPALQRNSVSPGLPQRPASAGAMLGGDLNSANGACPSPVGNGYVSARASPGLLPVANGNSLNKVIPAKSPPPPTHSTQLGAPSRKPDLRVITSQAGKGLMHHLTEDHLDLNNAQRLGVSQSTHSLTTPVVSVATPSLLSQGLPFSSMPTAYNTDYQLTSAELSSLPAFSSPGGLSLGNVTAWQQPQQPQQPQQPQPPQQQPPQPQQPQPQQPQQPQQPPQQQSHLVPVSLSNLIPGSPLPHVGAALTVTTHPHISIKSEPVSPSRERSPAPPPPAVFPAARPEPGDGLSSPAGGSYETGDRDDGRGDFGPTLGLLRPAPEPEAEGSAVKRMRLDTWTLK
UniProt Q5JTD0: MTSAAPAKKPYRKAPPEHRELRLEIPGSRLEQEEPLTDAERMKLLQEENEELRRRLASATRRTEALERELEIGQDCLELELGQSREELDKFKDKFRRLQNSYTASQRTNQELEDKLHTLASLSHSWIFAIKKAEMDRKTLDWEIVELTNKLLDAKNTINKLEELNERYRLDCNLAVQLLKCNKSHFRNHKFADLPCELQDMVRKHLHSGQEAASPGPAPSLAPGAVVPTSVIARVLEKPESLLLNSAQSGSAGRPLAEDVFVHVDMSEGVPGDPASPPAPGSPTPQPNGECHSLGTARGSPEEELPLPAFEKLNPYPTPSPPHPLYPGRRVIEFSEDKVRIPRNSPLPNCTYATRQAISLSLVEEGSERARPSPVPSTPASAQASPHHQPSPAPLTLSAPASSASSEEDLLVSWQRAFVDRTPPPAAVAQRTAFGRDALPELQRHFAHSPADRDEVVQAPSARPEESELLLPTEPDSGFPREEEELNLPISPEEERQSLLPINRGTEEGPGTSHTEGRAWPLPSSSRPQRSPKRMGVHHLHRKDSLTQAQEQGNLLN
UniProt Q15392: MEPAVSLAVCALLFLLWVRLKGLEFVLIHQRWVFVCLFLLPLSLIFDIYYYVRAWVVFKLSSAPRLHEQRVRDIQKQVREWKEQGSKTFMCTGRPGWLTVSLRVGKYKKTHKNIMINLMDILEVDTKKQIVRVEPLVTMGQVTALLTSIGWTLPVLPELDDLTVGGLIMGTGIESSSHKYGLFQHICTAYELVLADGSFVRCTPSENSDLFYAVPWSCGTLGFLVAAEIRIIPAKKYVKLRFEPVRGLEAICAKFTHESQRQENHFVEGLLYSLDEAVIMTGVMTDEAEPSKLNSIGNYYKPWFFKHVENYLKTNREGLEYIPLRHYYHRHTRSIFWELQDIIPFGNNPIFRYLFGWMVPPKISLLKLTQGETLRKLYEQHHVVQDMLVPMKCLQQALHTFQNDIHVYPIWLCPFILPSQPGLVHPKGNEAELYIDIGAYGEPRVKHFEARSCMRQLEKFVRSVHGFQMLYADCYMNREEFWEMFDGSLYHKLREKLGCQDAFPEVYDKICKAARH
UniProt Q16763: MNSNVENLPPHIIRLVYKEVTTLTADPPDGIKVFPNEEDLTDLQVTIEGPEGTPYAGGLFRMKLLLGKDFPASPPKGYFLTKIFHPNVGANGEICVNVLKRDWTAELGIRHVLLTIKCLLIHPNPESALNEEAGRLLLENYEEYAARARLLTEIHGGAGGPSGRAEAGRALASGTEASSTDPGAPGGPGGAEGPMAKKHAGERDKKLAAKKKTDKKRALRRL
UniProt Q3MIT2: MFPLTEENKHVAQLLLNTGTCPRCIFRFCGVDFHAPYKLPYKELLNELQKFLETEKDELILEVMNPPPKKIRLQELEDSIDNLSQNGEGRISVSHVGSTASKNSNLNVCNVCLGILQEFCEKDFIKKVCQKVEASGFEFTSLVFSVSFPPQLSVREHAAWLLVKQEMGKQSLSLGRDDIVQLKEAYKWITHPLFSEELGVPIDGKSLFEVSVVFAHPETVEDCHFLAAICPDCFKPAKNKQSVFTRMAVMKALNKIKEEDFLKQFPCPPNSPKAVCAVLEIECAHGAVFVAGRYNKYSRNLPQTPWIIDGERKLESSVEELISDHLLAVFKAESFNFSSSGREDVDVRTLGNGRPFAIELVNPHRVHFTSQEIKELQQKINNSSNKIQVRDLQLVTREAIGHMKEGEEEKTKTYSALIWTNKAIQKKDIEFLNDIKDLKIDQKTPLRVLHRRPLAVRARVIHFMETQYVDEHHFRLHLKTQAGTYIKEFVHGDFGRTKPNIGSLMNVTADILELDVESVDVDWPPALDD
UniProt Q15428: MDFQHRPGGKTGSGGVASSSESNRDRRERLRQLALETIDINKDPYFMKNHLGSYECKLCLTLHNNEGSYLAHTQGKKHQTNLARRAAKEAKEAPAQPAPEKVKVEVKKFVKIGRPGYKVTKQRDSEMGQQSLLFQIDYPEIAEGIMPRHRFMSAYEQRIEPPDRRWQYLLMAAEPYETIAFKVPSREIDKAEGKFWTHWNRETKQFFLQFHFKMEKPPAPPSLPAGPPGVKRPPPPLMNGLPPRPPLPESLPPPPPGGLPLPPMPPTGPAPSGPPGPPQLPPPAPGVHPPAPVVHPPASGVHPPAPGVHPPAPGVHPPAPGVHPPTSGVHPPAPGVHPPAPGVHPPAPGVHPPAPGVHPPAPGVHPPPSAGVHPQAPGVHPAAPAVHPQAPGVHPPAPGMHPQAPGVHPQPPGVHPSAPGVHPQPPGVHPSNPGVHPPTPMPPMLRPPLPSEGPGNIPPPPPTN

Compound in this assay: Nc1nc2c(ncn2[C@@H]2O[C@H](COP(=O)(O)OP(=O)(O)OP(=O)(O)O)[C@@H](O)[C@H]2O)c(=O)[nH]1 [guanosine triphosphate]
The assay can be described thus: NP40-soluble protein abundance relative to vehicle (solubility fold change) (ratio); higher = more soluble protein in presence of GTP. The gist of the method: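 Jurkat crude lysate (Dounce-homogenised) was treated with eight concentrations from 0.1 to 10 mM for 10 min at room temperature, then 3 min at 37 °C. It was solubilised with 0.8% NP40 and benzonase (60 min, 4 °C) and ultracentrifuged, and the supernatant was TMT-labelled for LC-MS/MS. Intensities were vsn-normalised, and the value is the fold change against the NP40-processed vehicle per replicate, from three independent experiments.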

± gives the standard deviation of the averaged measurements. The list shows a part of the results.

For HNRNPUL2 (UniProt Q1KMD3), the NP40-soluble protein abundance runs as follows: (concentration: 0.1mM) 1.05 ± 0.083; (concentration: 0.5mM) 1.14 ± 0.17; (concentration: 1mM) 1.18 ± 0.22; (concentration: 2mM) 1.27 ± 0.28; (concentration: 4mM) 1.31 ± 0.33; (concentration: 6mM) 1.29 ± 0.32. The NP40-soluble protein abundance stood at 1.28 ± 0.31 (concentration: 8mM) and 1.22 ± 0.3 (concentration: 10mM).

Take UniProt Q15067 and related entries: the NP40-soluble protein abundance stood at 0.989 ± 0.054 (concentration: 0.1mM); 1.03 ± 0.082 (concentration: 0.5mM); 0.889 ± 0.017 (concentration: 1mM); 0.95 ± 0.069 (concentration: 2mM); 0.904 ± 0.035 (concentration: 4mM); 0.924 ± 0.036 (concentration: 6mM). In addition, the NP40-soluble protein abundance by setting is: (concentration: 8mM) 0.841 ± 0.013; (concentration: 10mM) 0.867 ± 0.048.

For the target RABEP1 (UniProt Q15276), the NP40-soluble protein abundance by setting is: (concentration: 0.1mM) 0.978 ± 0.034; (concentration: 0.5mM) 0.956 ± 0.033; (concentration: 1mM) 0.97 ± 0.041; (concentration: 2mM) 0.945 ± 0.065; (concentration: 4mM) 0.927 ± 0.056; (concentration: 6mM) 0.935 ± 0.062. The NP40-soluble protein abundance came to 0.956 ± 0.016 (concentration: 8mM) and 0.943 ± 0.034 (concentration: 10mM).

As to UniProt Q16531 and related entries, the NP40-soluble protein abundance amounted to 1.01 ± 0.041 (concentration: 0.1mM); 1.06 ± 0.087 (concentration: 0.5mM); 0.959 ± 0.036 (concentration: 1mM); 1.01 ± 0.1 (concentration: 2mM); 0.974 ± 0.078 (concentration: 4mM); 1 ± 0.085 (concentration: 6mM). Besides, the NP40-soluble protein abundance reads like this: (concentration: 8mM) 0.926 ± 0.033; (concentration: 10mM) 0.931 ± 0.058.

As to CCDC58 (UniProt Q4VC31), the NP40-soluble protein abundance turned out to be 0.925 ± 0.075 (concentration: 0.1mM); 0.884 ± 0.1 (concentration: 0.5mM); 0.952 ± 0.049 (concentration: 1mM); 0.888 ± 0.068 (concentration: 2mM); 0.866 ± 0.097 (concentration: 4mM); 0.887 ± 0.099 (concentration: 6mM). Besides, the NP40-soluble protein abundance by setting is: (concentration: 8mM) 0.918 ± 0.086; (concentration: 10mM) 0.934 ± 0.02.

With UniProt Q15788 and related entries, the NP40-soluble protein abundance (concentration: 0.1mM) worked out at 1.03 ± 0.063; the NP40-soluble protein abundance (concentration: 0.5mM) was found to be 0.979 ± 0.03; the NP40-soluble protein abundance (concentration: 1mM) stood at 0.976 ± 0.083; the NP40-soluble protein abundance (concentration: 2mM) amounted to 0.928 ± 0.077; the NP40-soluble protein abundance (concentration: 4mM) is 0.973 ± 0.04; the NP40-soluble protein abundance (concentration: 6mM) came to 0.985 ± 0.052. Moreover, the NP40-soluble protein abundance came out at 0.988 ± 0.055 (concentration: 8mM) and 0.96 ± 0.084 (concentration: 10mM).

For RAB11B (UniProt Q15907), the NP40-soluble protein abundance is 0.963 ± 0.025 (concentration: 0.1mM); 0.9578 ± 0.0017 (concentration: 0.5mM); 0.887 ± 0.054 (concentration: 1mM); 0.872 ± 0.051 (concentration: 2mM); 0.852 ± 0.064 (concentration: 4mM); 0.849 ± 0.056 (concentration: 6mM). The NP40-soluble protein abundance came out at 0.818 ± 0.081 (concentration: 8mM) and 0.807 ± 0.078 (concentration: 10mM).

On to TBCC (UniProt Q15814), for which the NP40-soluble protein abundance (concentration: 0.1mM) was 1.07 ± 0.057; the NP40-soluble protein abundance (concentration: 0.5mM) was found to be 1.06 ± 0.02; the NP40-soluble protein abundance (concentration: 1mM) was determined as 0.97 ± 0.075; the NP40-soluble protein abundance (concentration: 2mM) came to 0.997 ± 0.13; the NP40-soluble protein abundance (concentration: 4mM) stood at 0.966 ± 0.11; the NP40-soluble protein abundance (concentration: 6mM) worked out at 0.939 ± 0.096. Also, the NP40-soluble protein abundance was 0.946 ± 0.033 (concentration: 8mM) and 0.921 ± 0.077 (concentration: 10mM).

As for UniProt Q56NI9 and related entries, the NP40-soluble protein abundance by setting is: (concentration: 0.1mM) 1.05 ± 0.12; (concentration: 0.5mM) 1.06 ± 0.056; (concentration: 1mM) 0.9483 ± 0.0077; (concentration: 2mM) 0.9853 ± 0.0096; (concentration: 4mM) 1.09 ± 0.16; (concentration: 6mM) 1.02 ± 0.051. In addition, the NP40-soluble protein abundance was 1.03 ± 0.056 (concentration: 8mM) and 1.01 ± 0.013 (concentration: 10mM).

For the target UniProt Q14814 and related entries, the NP40-soluble protein abundance runs as follows: (concentration: 0.1mM) 0.947 ± 0.02; (concentration: 0.5mM) 0.979 ± 0.035; (concentration: 1mM) 0.975 ± 0.021; (concentration: 2mM) 0.987 ± 0.081; (concentration: 4mM) 0.931 ± 0.092; (concentration: 6mM) 0.959 ± 0.11. Moreover, the NP40-soluble protein abundance is, setting by setting: (concentration: 8mM) 0.935 ± 0.052; (concentration: 10mM) 1.05 ± 0.082.

Regarding UniProt Q5JTD0 and related entries, the NP40-soluble protein abundance was 0.95 ± 0.046 (concentration: 0.1mM); 0.956 ± 0.071 (concentration: 0.5mM); 1.08 ± 0.05 (concentration: 1mM); 0.993 ± 0.1 (concentration: 2mM); 0.96 ± 0.05 (concentration: 4mM); 1.01 ± 0.13 (concentration: 6mM). Also, the NP40-soluble protein abundance is, setting by setting: (concentration: 8mM) 1.04 ± 0.076; (concentration: 10mM) 0.996 ± 0.07.

As to “Q15392 and related entries (UniProt Q3LIE7+Q15392)”, the NP40-soluble protein abundance is, setting by setting: (concentration: 0.1mM) 1.11 ± 0.049; (concentration: 0.5mM) 1.13 ± 0.1; (concentration: 1mM) 0.92 ± 0.065; (concentration: 2mM) 0.965 ± 0.15; (concentration: 4mM) 0.943 ± 0.092; (concentration: 6mM) 0.931 ± 0.098. The NP40-soluble protein abundance is, setting by setting: (concentration: 8mM) 0.869 ± 0.063; (concentration: 10mM) 0.833 ± 0.13.

Turning to UBE2S (UniProt Q16763), the NP40-soluble protein abundance (concentration: 0.1mM) turned out to be 0.992 ± 0.031; the NP40-soluble protein abundance (concentration: 0.5mM) was found to be 0.941 ± 0.01; the NP40-soluble protein abundance (concentration: 1mM) came out at 0.9603 ± 0.0058; the NP40-soluble protein abundance (concentration: 2mM) came to 0.905 ± 0.015; the NP40-soluble protein abundance (concentration: 4mM) was 0.924 ± 0.023; the NP40-soluble protein abundance (concentration: 6mM) came to 0.905 ± 0.023. For the same target, the NP40-soluble protein abundance is, setting by setting: (concentration: 8mM) 0.928 ± 0.054; (concentration: 10mM) 0.869 ± 0.032.

Turning to PUS10 (UniProt Q3MIT2), the NP40-soluble protein abundance was 1.09 ± 0.11 (concentration: 0.1mM); 1.13 ± 0.14 (concentration: 0.5mM); 1.03 ± 0.11 (concentration: 1mM); 0.975 ± 0.049 (concentration: 2mM); 0.951 ± 0.012 (concentration: 4mM); 0.958 ± 0.04 (concentration: 6mM). The NP40-soluble protein abundance is 0.925 ± 0.13 (concentration: 8mM) and 0.878 ± 0.11 (concentration: 10mM).

Regarding SF3A2 (UniProt Q15428), the NP40-soluble protein abundance (concentration: 0.1mM) is 0.955 ± 0.035; the NP40-soluble protein abundance (concentration: 0.5mM) came to 1.01 ± 0.0056; the NP40-soluble protein abundance (concentration: 1mM) is 1.07 ± 0.062; the NP40-soluble protein abundance (concentration: 2mM) came out at 1.08 ± 0.039; the NP40-soluble protein abundance (concentration: 4mM) came to 1.05 ± 0.052; the NP40-soluble protein abundance (concentration: 6mM) turned out to be 1.1 ± 0.027. Further, the NP40-soluble protein abundance was determined as 1.08 ± 0.043 (concentration: 8mM) and 1.1 ± 0.072 (concentration: 10mM).
